Experimental data from the supplement of paper PMC6078165.

System: MDAMB231
Assay: relative JC-1 red fluorescence (viability) vs pre-drug, coculture with fibroblast (fraction); higher = more viable cancer cells
Details: 0.1 µM
Protocol: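 JC-1 labelled TNBC cells cocultured 1:1 (1,500 cells each) with CellTrace Violet stained primary or stromal fibroblasts in 384-well plates in FluoroBrite medium, treated with one of 42 anticancer drugs at 0.1, 1, 10 or 100 uM. JC-1 red fluorescence (mitochondrial integrity in cancer cells only) was read by plate reader every 8 h for 72 h. Values are normalised to each well's pre-drug value. The stock of one drug was tenfold lower, so its dose labels may be too high.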

O=NN(CCCl)C(=O)NC1CCCCC1 [Lomustine]
relative JC-1 red fluorescence
Details	8 h	16 h	24 h	32 h	40 h	48 h	56 h	64 h	72 h
coculture fibroblast: C12385	0.767	0.74028	0.666	0.641	0.584	0.551	0.509	0.506	0.49
coculture fibroblast: H6013	0.8772	0.85	0.828	0.82	0.809	0.804	0.79	0.773	0.739
coculture fibroblast: H6019	0.7794	0.7052	0.6838	0.648	0.609	0.574	0.53	0.505	0.473
coculture fibroblast: H6076	0.897	0.822	0.772	0.731	0.687	0.645	0.615	0.589	0.576
coculture fibroblast: H6231	0.88	0.7934	0.726	0.667	0.618	0.584	0.544	0.538	0.514
coculture fibroblast: HADF	0.861	0.827	0.788	0.756	0.721	0.689	0.674	0.666	0.623
coculture fibroblast: HCFa	0.8642	0.814	0.764	0.724	0.679	0.622	0.604	0.559	0.515
coculture fibroblast: HCPF	0.849	0.7686	0.721	0.691	0.643	0.608	0.582	0.557	0.547
coculture fibroblast: HHSteC	0.8799	0.8588	0.8208	0.781	0.741	0.725	0.679	0.661	0.621
coculture fibroblast: HMF	0.857	0.7853	0.7278	0.6918	0.647	0.609	0.579	0.553	0.54
coculture fibroblast: HPFa	0.9142	0.87	0.808	0.746	0.732	0.6846	0.618	0.5906	0.5351
coculture fibroblast: HUF	0.848	0.736	0.754	0.647	0.584	0.575	0.535	0.538	0.522
coculture fibroblast: Hs5	0.8822	0.825	0.786	0.738	0.694	0.636	0.601	0.569	0.539
coculture fibroblast: Hs27A	0.8744	0.8142	0.783	0.748	0.704	0.65	0.651	0.619	0.576
coculture fibroblast: Hs343T	0.839	0.733	0.679	0.641	0.589	0.544	0.502	0.486	0.472
coculture fibroblast: WS1	0.775	0.696	0.662	0.589	0.55	0.523	0.484	0.484	0.462

The reference is the same well before dosing, and untreated signal decays as well.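 Fibroblast labels name human fibroblasts: mostly primary ones from tissues such as uterus (C12385, HUF), lung (H6013), bone (Hs27A), adrenal (HADF) and skin (WS1), plus mammary HMF and breast cancer-associated Hs343T. The cancer cells are basal-like or mesenchymal-like triple-negative breast cancer lines. The paper calls a changed response a hit when it shifts by more than 3x the replicate standard deviation. The tissue of the other fibroblasts is not given here.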
